Measurements reported in PubChem BioAssay AID1053208 (Peter MacCallum Cancer Centre, 2014)
Assay: 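Genes whose silencing cuts survival of bone tumour cells only with doxorubicin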 (primary screen). Cell system: mouse osteosarcoma cells, early-passage culture from an engineered mouse model of fibroblastic bone tumour. Reagent: siRNA pool against mouse genes, 40 nM. Duration: about 120 h (48 h before drug, then 72 h with drug). Challenge: doxorubicin 100 nM for 72 h, roughly 30-40% inhibitory dose. Read-out: 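Viability read as ATP luminescence after 72 h of 100 nM doxorubicin or none, duplicate wells averaged, scaled to non-targeting siRNA, then expressed as robust z-scores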. Reading the numbers: viability z-score with doxorubicin and doxorubicin viability vs non-targeting: higher = more viable cells under doxorubicin; viability z-score without drug: higher = more viable cells with knock-down alone; z-score of drug to no-drug ratio: higher = less drug sensitisation by knock-down. Rule for the call: 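a pool counts as active when its viability z-score with doxorubicin is -2 or below and its z-score without drug lies between -2 and 2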.
The whole screen tested about 17,000 reagents; shown is a random part of them. Of all reagents, 788 (4.7%) were called active. 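Calls rest on z-score classes alone; an extra cut-off of viability at most 70% of control was not applied to them.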 Unmarked entries are inactive. Reagent sequences are not shown.

target | combined z-score class | viability z-score with doxorubicin | viability z-score without drug | z-score of drug to no-drug ratio | doxorubicin viability vs non-targeting
Runx3 (runt related transcription factor 3) | no change with or without drug | -0.67 | -0.51 | -0.22 | 0.88
Bst1 (bone marrow stromal cell antigen 1) | no change with or without drug | 0.34 | 1.18 | -0.34 | 0.97
Vmn1r15 (vomeronasal 1 receptor 15) | no change with or without drug | -1.12 | 0.51 | -1.35 | 0.84
Tbpl2 (TATA box binding protein like 2) | no change with or without drug | -0.9 | -1.18 | 0 | 0.86
Or52h2 (olfactory receptor family 52 subfamily H member 2) | no change with or without drug | -0.45 | 0.51 | -0.67 | 0.9
Dph1 (diphthamide biosynthesis 1) | no change with or without drug | 1.12 | -0.51 | 1.69 | 1.04
Oacyl (O-acyltransferase like) | no change with or without drug | 1.69 | 0.84 | 1.24 | 1.09
Celsr3 (cadherin, EGF LAG seven-pass G-type receptor 3) | no change with or without drug | -0.45 | -0.17 | -0.22 | 0.9
Or8b9 (olfactory receptor family 8 subfamily B member 9) | no change with or without drug | 1.12 | 1.52 | 0.22 | 1.04
Ube2l3 (ubiquitin-conjugating enzyme E2L 3) | no change with or without drug | -0.9 | -0.84 | -0.22 | 0.86
Arhgap17 (Rho GTPase activating protein 17) | no change with or without drug | -1.57 | -0.17 | -1.46 | 0.8
Mdh1b (malate dehydrogenase 1B, NAD (soluble)) | high cell count without drug only | 0.67 | 2.19 | -0.56 | 1
Dtx2 (deltex 2, E3 ubiquitin ligase) | no change with or without drug | -0.45 | 0.51 | -0.67 | 0.9
Uts2 (urotensin 2) | no change with or without drug | 0.45 | 0.17 | 0.45 | 0.98
Arid2 (AT-rich interaction domain 2) | no change with or without drug | -0.11 | -0.84 | 0.56 | 0.93
Myo10 (myosin X) | no change with or without drug | 1.57 | -0.17 | 1.91 | 1.08
Duox2 (dual oxidase 2) | low cell count without drug only | -0.22 | -6.91 | 8.09 | 0.92
Slc36a4 | no change with or without drug | -1.91 | -0.17 | -1.8 | 0.77
Fip1l1 (factor interacting with PAPOLA and CPSF1) | no change with or without drug | 0.9 | 0.51 | 0.67 | 1.02

Already shown: 4 of the entries above.
target | combined z-score class | viability z-score with doxorubicin | viability z-score without drug | z-score of drug to no-drug ratio | doxorubicin viability vs non-targeting
Myo10 (myosin X) | no change with or without drug | 1.57 | -0.17 | 1.91 | 1.08
Duox2 (dual oxidase 2) | low cell count without drug only | -0.22 | -6.91 | 8.09 | 0.92
Slc36a4 | no change with or without drug | -1.91 | -0.17 | -1.8 | 0.77
Fip1l1 (factor interacting with PAPOLA and CPSF1) | no change with or without drug | 0.9 | 0.51 | 0.67 | 1.02

Next entries:
target | combined z-score class | viability z-score with doxorubicin | viability z-score without drug | z-score of drug to no-drug ratio | doxorubicin viability vs non-targeting
Ankrd40 (ankyrin repeat domain 40) | no change with or without drug | -0.45 | -1.18 | 0.45 | 0.9
Nop16 (NOP16 nucleolar protein) | no change with or without drug | 0 | 0.17 | 0 | 0.94
Il10 (interleukin 10) | no change with or without drug | 1.24 | 0.51 | 1.01 | 1.05
Rbm4b (RNA binding motif protein 4B) | no change with or without drug | 0 | 0.17 | 0 | 0.94
Dbndd1 (dysbindin domain containing 1) | low cell count with doxorubicin only (active) | -2.14 | -1.52 | -1.24 | 0.75
Nipa2 | no change with or without drug | 0.11 | -0.17 | 0.34 | 0.95
Nostrin (nitric oxide synthase trafficker) | no change with or without drug | -0.22 | 0.51 | -0.45 | 0.92
Cd38 (CD38 antigen) | no change with or without drug | -0.9 | -0.34 | -0.67 | 0.86
Dusp10 (dual specificity phosphatase 10) | high cell count with doxorubicin only | 2.02 | 0.67 | 1.69 | 1.12
Gnai3 (G protein subunit alpha i3) | no change with or without drug | 0.34 | 1.18 | -0.34 | 0.97
Atp4a (ATPase, H+/K+ exchanging, gastric, alpha polypeptide) | no change with or without drug | -0.22 | -1.52 | 1.01 | 0.92
Slc14a1 | no change with or without drug | 1.01 | -0.51 | 1.57 | 1.03
Rock1 (Rho-associated coiled-coil containing protein kinase 1) | no change with or without drug | -0.45 | 1.18 | -1.12 | 0.9
Tmem42 (transmembrane protein 42) | no change with or without drug | 0 | 1.52 | -0.9 | 0.94
Or5m3 (olfactory receptor family 5 subfamily M member 3) | no change with or without drug | -0.79 | -1.85 | 0.67 | 0.87
